Test results: patent US9211270B2, “Method for improving the efficacy of curcuminoids and their analogs” (ASAC Compañía de Biotecnología e Investigación, S.A., priority 2007, dated 2015)
For at least one compound, name, drawing or mass did not settle the structure.

Columns and labels:
[1] = system: A431 cells (human epidermal carcinoma); assay: Inhibition of tumor growth in mice, intraperitoneal Curcumin with visible light; type: in vivo, athymic nude mice (NMRI); conditions: Curcumin-treated but not irradiated group, p=0.16
psoriatic plaques = conditions: oral, 1-20 J/cm^2 visible light (LED, 417 nm), 15 plaques; cited from earlier work

SMILES	tumor volume versus control [1]	improvement of severity of the plaques compared to baseline (psoriatic plaques)
COc1cc(/C=C/C(=O)CC(=O)/C=C/c2ccc(O)c(OC)c2)ccc1O [Curcumin, curcumin (diferuloylmethane)]	not significantly reduced	
NCC(=O)CCC(=O)O [Aminolevulinic acid]		42%
